Data as given in PubChem BioAssay AID1508588 (Peter MacCallum Cancer Centre, 2020).

Purpose: 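Genome-wide search for knock-downs that heighten vemurafenib action in melanoma cells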 (primary screen)
System: human WM266.4 melanoma cells (BRAF V600 mutant)
Reagent: siRNA pool against human genes, 40 nM
Time to read-out: 96 h from transfection to read-out
Challenge: vemurafenib 300 nM (about IC25), added 48 h after transfection, for 48 h; comparison arm got DMSO vehicle only
Detection: 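Cell gain (DAPI nuclei at end minus before drug, mean of two replicates) and medium lactate by absorbance per cell, both as ratio to non-targeting siRNA, also grouped into fold-change classes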
Reading the numbers: cell gain with vemurafenib: higher = more cell gain than with non-targeting siRNA; lactate per cell with vemurafenib: higher = more lactate made per cell
Rule for the call: 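a knock-down counts as enhancing when its fold-change classes with vehicle and with vemurafenib, taken together, show a stronger drug effect on cell gain or lactate per cell; exact class pairs not stated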
Meaning of the calls: active = enhances vemurafenib effect; inactive = no enhancement seen
Here is a random part of about 18,000 reagents tested. 790 of all reagents (4.4%) count as active. 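Calls rest on a combination of fold-change classes in drug and vehicle arms, not all shown here.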 Some reagents were tested in more than one well and are listed for each.

Depletion of CMC2 (GeneID 56942) came out at: cell gain with vemurafenib 0.59; lactate per cell with vemurafenib 0.97; inactive.
With knock-down of CHRM5 (GeneID 1133) the results were cell gain with vemurafenib 0.43; lactate per cell with vemurafenib 0.95; inactive.
Depletion of CHRM5 (GeneID 1133) resulted in: cell gain with vemurafenib 0.28; lactate per cell with vemurafenib 1.93; inactive.
With knock-down of RNMT (GeneID 8731) the results were cell gain with vemurafenib 0.79; lactate per cell with vemurafenib 0.17; inactive.
Depletion of COL13A1 (GeneID 1305) came out at: cell gain with vemurafenib 0.54; lactate per cell with vemurafenib 1.28; inactive.
ARPIN (GeneID 348110) scored cell gain with vemurafenib -0.08; lactate per cell with vemurafenib 1.04; inactive.
After knock-down of TAL1 (GeneID 6886), the record shows cell gain with vemurafenib 0.72; lactate per cell with vemurafenib 1.27; inactive.
With knock-down of HTR2A (GeneID 3356) the results were cell gain with vemurafenib 0.49; lactate per cell with vemurafenib 1.06; inactive.
With knock-down of BOP1 (GeneID 23246) the results were cell gain with vemurafenib 0.15; lactate per cell with vemurafenib 3.37; inactive.
After knock-down of UGT2B17 (GeneID 7367), the record shows cell gain with vemurafenib 0.39; lactate per cell with vemurafenib 0.66; inactive.
With knock-down of TMCC2 (GeneID 9911), the screen gave cell gain with vemurafenib 0.94; lactate per cell with vemurafenib 1.04; inactive.
For EVI2A (GeneID 2123), the entry reads cell gain with vemurafenib 0.97; lactate per cell with vemurafenib 0.86; inactive.
Against ATP6V1E1 (GeneID 529), the values are cell gain with vemurafenib 0.74; lactate per cell with vemurafenib 0.66; inactive.
For SH3BP2 (GeneID 6452), the values are cell gain with vemurafenib 1.23; lactate per cell with vemurafenib 0.9; inactive.
CBLB (GeneID 868) showed cell gain with vemurafenib 0.99; lactate per cell with vemurafenib 0.82; inactive.
After knock-down of PAX2 (GeneID 5076), the screen gave cell gain with vemurafenib 0.71; lactate per cell with vemurafenib 0.66; inactive.
TMC7 (GeneID 79905) gave cell gain with vemurafenib 0.67; lactate per cell with vemurafenib 0.55; inactive.
With knock-down of NFAM1 (GeneID 150372), the screen gave cell gain with vemurafenib 0.73; lactate per cell with vemurafenib 0.9; inactive.
For FAH (GeneID 2184) the deposit lists cell gain with vemurafenib 0.52; lactate per cell with vemurafenib 1.51; inactive.
With knock-down of RAN (GeneID 5901), the screen gave cell gain with vemurafenib -0.14; lactate per cell with vemurafenib 2.71; inactive.
ATP8B1 (GeneID 5205) scored cell gain with vemurafenib 0.38; lactate per cell with vemurafenib 1.94; inactive.
Knock-down of CCDC18 (GeneID 343099) resulted in: cell gain with vemurafenib 0.9; lactate per cell with vemurafenib 1.03; inactive.
QNG1 (GeneID 84267) gave cell gain with vemurafenib 0.16; lactate per cell with vemurafenib 2.42; inactive.
Depletion of ARMH3 (GeneID 79591) came out at: cell gain with vemurafenib 0.84; lactate per cell with vemurafenib 0.66; inactive.
RPGRIP1 (GeneID 57096) scored cell gain with vemurafenib 0.13; lactate per cell with vemurafenib 1.42; inactive.
LINC00452 (GeneID 643365) gave cell gain with vemurafenib 0.81; lactate per cell with vemurafenib 0.74; inactive.
Against YJU2B (GeneID 81576) the deposit lists cell gain with vemurafenib 0.88; lactate per cell with vemurafenib 0.64; inactive.
Against RNASE3 (GeneID 6037), the values are cell gain with vemurafenib 0.54; lactate per cell with vemurafenib 0.74; inactive.
C7orf25 (GeneID 79020) scored cell gain with vemurafenib 0.69; lactate per cell with vemurafenib 0.52; inactive.
After knock-down of LRRFIP1 (GeneID 9208), the record shows cell gain with vemurafenib 0.47; lactate per cell with vemurafenib 0.72; inactive.
Silencing of CTNNBL1 (GeneID 56259) resulted in: cell gain with vemurafenib 0.81; lactate per cell with vemurafenib 0.88; inactive.
With knock-down of FAM81B (GeneID 153643) the results were cell gain with vemurafenib 0.73; lactate per cell with vemurafenib 1.02; inactive.
After knock-down of RB1 (GeneID 5925) the results were cell gain with vemurafenib 1.09; lactate per cell with vemurafenib 0.48; inactive.
For DISP2 (GeneID 85455) the deposit lists cell gain with vemurafenib 0.32; lactate per cell with vemurafenib 2.45; inactive.
Silencing of PRELID3A (GeneID 10650) gave: cell gain with vemurafenib 0.58; lactate per cell with vemurafenib 0.64; inactive.
For SND1-IT1 (GeneID 27099), the values are cell gain with vemurafenib 0.54; lactate per cell with vemurafenib 0.45; inactive.
Knock-down of FAM204A (GeneID 63877) gave: cell gain with vemurafenib 0.25; lactate per cell with vemurafenib 0.44; active.
EBF2 (GeneID 64641) showed cell gain with vemurafenib 0.24; lactate per cell with vemurafenib 0.15; active.
For MDH2 (GeneID 4191), the entry reads cell gain with vemurafenib 0.85; lactate per cell with vemurafenib 0.65; inactive.
After knock-down of ZIC3 (GeneID 7547) the results were cell gain with vemurafenib 0.73; lactate per cell with vemurafenib 0.89; inactive.

Laid out differently: results already given
{"gene": "TMCC2 (GeneID 9911)", "cell gain with vemurafenib": 0.94, "lactate per cell with vemurafenib": 1.04, "Call": "inactive"}
{"gene": "EVI2A (GeneID 2123)", "cell gain with vemurafenib": 0.97, "lactate per cell with vemurafenib": 0.86, "Call": "inactive"}
